Reference: PubChem BioAssay AID743454 (Peter MacCallum Cancer Centre, 2014)

Test: 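Search for knock-downs that restore vorinostat killing in resistant colon cancer cells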 (primary screen)
System: human HCT116-VR colon cancer cells, selected for vorinostat resistance
Knock-down reagent: siRNA pool against human genes, 40 nM siRNA pool
Duration: vorinostat for 24 h, read-out about 72 h after transfection
Conditions: vorinostat at 2.5 µM final
Measurement: 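Two measures, CellTiter-Fluor viability and luminescent caspase 3/7 activity, each as fold change against same-plate mock wells, mean of duplicates, then screen-wide robust z-score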
Reading the numbers: viability robust z-score: higher = more viable cells than screen typical; caspase robust z-score: higher = more caspase 3/7 activity than screen typical
Active means: 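a knock-down is a hit when classed RV1 or RV2 for lowered viability, or CA1 or CA2 for caspase activation; those lethal without drug were dropped; hits were retested singly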
Here is a random part of about 18,000 deposited reagents. 450 of all reagents (2.5%) were called active. 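Single biological run; no consistent viability z cut-off exists, so the class columns, not z-scores, define the calls.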 A number with no mark means an inactive call. The numbers tell different reagents against one gene apart. Reagent sequences are not shown.

Gene | reagent no. | viability hit class | caspase hit class | viability robust z-score | caspase robust z-score
PRRT3 (proline rich transmembrane protein 3) | 1 | no change (active) | CA1 (caspase activation) | -0.3 | 8.29
PHF21A (PHD finger protein 21A) | 1 | no change | no change | 0.63 | -0.94
PYHIN1 (pyrin and HIN domain family member 1) | 1 | no change | no change | -0.5 | -0.18
B3GNT5 | 1 | no change | no change | 0.56 | -0.96
PAQR6 (progestin and adipoQ receptor family member 6) | 1 | no change | no change | 0.48 | -0.1
LALBA (lactalbumin alpha) | 1 | no change | no change | 1.14 | -0.64
HPDL (4-hydroxyphenylpyruvate dioxygenase like) | 1 | no change | no change | 0.09 | -0.7
PELI3 (pellino E3 ubiquitin protein ligase family member 3) | 1 | no change | no change | 0.2 | 0.16
NDNF (neuron derived neurotrophic factor) | 1 | no change | no change | -0.09 | -0.52
ATP2A3 | 1 | no change | no change | 0.59 | 3.91
TSSK3 (testis specific serine kinase 3) | 1 | no change | no change | 0.3 | 0.26
PLEKHH1 (pleckstrin homology, MyTH4 and FERM domain containing H1) | 1 | no change | no change | -0.66 | 0.32
TMEM41B (transmembrane protein 41B) | 1 | no change | no change | 0.25 | 1.84
SPTLC2 (serine palmitoyltransferase long chain base subunit 2) | 1 | no change | no change | -0.72 | 0.67
PRPS1L1 (phosphoribosyl pyrophosphate synthetase 1 like 1) | 1 | no change | no change | 0.43 | -0.36
RENBP (renin binding protein) | 1 | no change | no change | 0.74 | 1.42
NRG2 (neuregulin 2) | 1 | no change | no change | -0.09 | 2.95
SLC35B4 | 1 | no change | no change | 0.04 | 4.73
NR1D2 (nuclear receptor subfamily 1 group D member 2) | 1 | no change | no change | 0.1 | 1.99
FAM178B (family with sequence similarity 178 member B) | 1 | no change | no change | -0.16 | 0.97
TXNRD3 (thioredoxin reductase 3) | 1 | no change | no change | 0.74 | -0.5
TXNRD3 (thioredoxin reductase 3) | 2 | no change | no change | 0.28 | 0.48
HOXD10 (homeobox D10) | 1 | no change | no change | -0.12 | 1.29
COL1A1 (collagen type I alpha 1 chain) | 1 | no change | no change | -0.32 | -0.66
KIF4A (kinesin family member 4A) | 1 | no change | no change | 0.6 | 1.77
AFAP1L1 (actin filament associated protein 1 like 1) | 1 | no change | no change | -0.44 | 0.96
CTCF (CCCTC-binding factor) | 1 | no change | no change | -3.18 | 1.28
SCYL1 (SCY1 like pseudokinase 1) | 1 | no change | no change | 0.45 | -1
UBE2F (ubiquitin conjugating enzyme E2 F (putative)) | 1 | no change | no change | -1.96 | 1.68
RASAL1 (RAS protein activator like 1) | 1 | no change | no change | 0.04 | 0.38
AKR1B10 (aldo-keto reductase family 1 member B10) | 1 | no change | no change | -0.3 | -1.05
LSG1 (large 60S subunit nuclear export GTPase 1) | 1 | no change | no change | 0.74 | -0.55
PEX39 (peroxisomal biogenesis factor 39) | 1 | no change | no change | 1.86 | -0.65
HMGN1 (high mobility group nucleosome binding domain 1) | 1 | no change | no change | -2.66 | 2.96
PPFIA3 (PPFI scaffold protein A3) | 1 | no change | no change | 1.16 | 0.31
RAB11FIP5 (RAB11 family interacting protein 5) | 1 | no change | no change | -2.31 | 0.93
WDR54 (WD repeat domain 54) | 1 | no change | no change | -1.11 | -0.01
TGM6 (transglutaminase 6) | 1 | no change | no change | -1.02 | 1.32
MAD1L1 (mitotic arrest deficient 1 like 1) | 1 | no change | no change | -0.16 | -1.01
F2RL1 (F2R like trypsin receptor 1) | 1 | no change | no change | 0.83 | -0.18
IL36G (interleukin 36 gamma) | 1 | no change | no change | 1.46 | 2.8
ILK (integrin linked kinase) | 1 | no change | no change | 0.2 | -0.48
ILK (integrin linked kinase) | 2 | no change | no change | -1.58 | -0.46
TUBB3 (tubulin beta 3 class III) | 1 | no change | no change | -0.22 | 0.32
COA6 (cytochrome c oxidase assembly factor 6) | 1 | no change | no change | 0.13 | -1.36
KCNAB3 | 1 | no change | no change | 0.55 | -0.4
TINAG (tubulointerstitial nephritis antigen) | 1 | no change | no change | -0.12 | -1.1
TRNT1 (tRNA nucleotidyl transferase 1) | 1 | no change | no change | 0.57 | -0.62
FBXL16 (F-box and leucine rich repeat protein 16) | 1 | no change | no change | -0.82 | 1.45
BHLHA15 (basic helix-loop-helix family member a15) | 1 | no change | no change | 0.08 | 0.55
CAMK2D (calcium/calmodulin dependent protein kinase II delta) | 1 | no change | no change | 1.6 | -0.41
RGS10 (regulator of G protein signaling 10) | 1 | no change | no change | 1.66 | 1.61
C1orf52 (chromosome 1 open reading frame 52) | 1 | RV2 (reduced viability) (active) | no change | -2.96 | 3.24
MPRIP (myosin phosphatase Rho interacting protein) | 1 | no change | no change | 0.18 | -0.44
TMT1B (thiol methyltransferase 1B) | 1 | no change | no change | 1.05 | 2.56
LIN9 (lin-9 DREAM MuvB core complex component) | 1 | no change | no change | -0.41 | 1.02
IFRD2 (interferon related developmental regulator 2) | 1 | no change | no change | -0.09 | 1.57
MYL1 (myosin light chain 1) | 1 | no change | no change | -1.36 | 0.38
LBP (lipopolysaccharide binding protein) | 1 | no change | no change | -1.52 | 1.54
POC5 (POC5 centriolar protein) | 1 | no change | no change | -0.07 | -1.04
VPREB3 (V-set pre-B cell surrogate light chain 3) | 1 | no change | no change | 0.74 | -1.25
HSD17B3 (hydroxysteroid 17-beta dehydrogenase 3) | 1 | no change | no change | 0.94 | -0.37
PMF1 (polyamine modulated factor 1) | 1 | no change | no change | 0.34 | 3.98
VNN3P (vanin 3, pseudogene) | 1 | no change | no change | 0.5 | 2.56
FUT2 (fucosyltransferase 2 (H blood group)) | 1 | no change | no change | 0.71 | -0.64
CNTN4 (contactin 4) | 1 | no change | no change | 0.15 | -0.86
KLRG2 (killer cell lectin like receptor G2) | 1 | no change | no change | -0.46 | -0.54
TAPT1 (transmembrane anterior posterior transformation 1) | 1 | no change | no change | -0.28 | 0.36
PUF60 (poly(U) binding splicing factor 60) | 1 | RV2 (reduced viability) (active) | CA2 (caspase activation) | -3.61 | 9.61
CCL13 (C-C motif chemokine ligand 13) | 1 | no change | no change | -0.36 | 0.41
HR (HR lysine demethylase and nuclear receptor corepressor) | 1 | no change | no change | 1.09 | -0.5
GNA15 (G protein subunit alpha 15) | 1 | no change | no change | 0.29 | -0.07
SPRY4 (sprouty RTK signaling antagonist 4) | 1 | no change | no change | 0.3 | 1.92

A portion of the results above, for reference:
Gene | reagent no. | viability hit class | caspase hit class | viability robust z-score | caspase robust z-score
HOXD10 (homeobox D10) | 1 | no change | no change | -0.12 | 1.29
COL1A1 (collagen type I alpha 1 chain) | 1 | no change | no change | -0.32 | -0.66
KIF4A (kinesin family member 4A) | 1 | no change | no change | 0.6 | 1.77
AFAP1L1 (actin filament associated protein 1 like 1) | 1 | no change | no change | -0.44 | 0.96
CTCF (CCCTC-binding factor) | 1 | no change | no change | -3.18 | 1.28
SCYL1 (SCY1 like pseudokinase 1) | 1 | no change | no change | 0.45 | -1
UBE2F (ubiquitin conjugating enzyme E2 F (putative)) | 1 | no change | no change | -1.96 | 1.68
